Source: ChEMBL document CHEMBL3988442, “University of Dundee, Small-Polar-MMV Screening Library” (2021).

A: 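Growth of Mycobacterium tuberculosis over 3 days (7H9 medium with glucose and tyloxapol); the read-out is not stated. Tested at 50 µM. The record gives no direction; compounds that gave an IC50 in retests scored well above the rest, so higher reads as more growth inhibition. Size under these conditions: about 69,000 compounds, about 760 of them at 50% or above in at least one test.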
B: 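Phenotypic screen: M. tuberculosis growth, cholesterol and DPPC medium, 4 days; the read-out is not stated. Tested at 50 µM. The record gives no direction; compounds that gave an IC50 in retests scored well above the rest, so higher reads as more growth inhibition. Of about 69,000 compounds tested this way, about 370 (0.54%) reached 50% or more in at least one test.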

Values are the deposited “Percent Effect”, in %. The record does not define 0% and 100%; most values in the screen are far below 50% and negative numbers occur (in some assays of this library far below -100). Compounds were drawn at random from those tested, without regard to their results. Two or more numbers in one place are separate tests of the same structure; such repeats can differ widely.

| # | Compound | A | B |
|---|---|---|---|
| 1 | `Cc1c(C(=O)NC2(C#N)CCCC2)nnn1-c1ccccc1Cl` | 12.36% | 13.1% |
| 2 | `O=C(O)C(F)(F)F.O=C(O)C(F)(F)F.O=C(O)C(F)(F)F.[H][C@@]12CN(Cc3cnn(C)c3)C[C@]1([H])OCCN2CCN(C)C` | 5.579% | -5.05% |
| 3 | `CN(C)C(=O)COCC1CN(Cc2cccs2)Cc2ncn(C)c21.O=C(O)C(F)(F)F.O=C(O)C(F)(F)F` (stereo not drawn) | -29.35% | -15.12% |
| 4 | `Cc1ccc(CN2CCn3c(C(=O)N(C)C)cnc3C2)s1.O=C(O)C(F)(F)F` | -22.58% | 3.258% |
| 5 | `COCCN1CCCC(O)(CN2CCN(c3ncccc3C)CC2)C1=O` (stereo not drawn) | -25.33% | -16.96% |
| 6 | `COc1ccccc1OCc1cc(C(=O)N2[C@H](C)CC[C@@H]2C)n[nH]1` | 2.79% | -9.97% |
| 7 | `CNC(=O)c1c(C)cccc1NCc1nnc(C2CC2)o1` | 18.53% & 0.8362% | -7.167% |
| 8 | `CCn1nnc2c1C(COC)CN(C(=O)COc1ccccc1)C2` (stereo not drawn) | -12.84% | -3.984% & -5.304% |
| 9 | `CN1CCN(Cc2ccco2)Cc2cccnc21` | -7.016% & -5.87% | -14.65% |
| 10 | `COCCn1ccnc1C1CCCN(C(=O)c2cc(F)cc(F)c2)C1` (stereo not drawn) | 7.678% | -2.662% & -5.603% |
| 11 | `CN1CC2(CCN(C(=O)c3ccc(-n4cnnc4)cc3Cl)CC2)OC1=O` | 9.193% | -8.905% |
| 12 | `COc1ccc(C(=O)N2CCCC2c2ccco2)cc1OC` (stereo not drawn) | -13.68% | -18.06% |
| 13 | `Cc1ccc(-n2c(COC(C)C)n[nH]c2=O)cc1` | -2.81% & -12.33% | -11.24% & -2.988% |
| 14 | `COc1ccc(OC)c(NC(=O)NCC(O)c2ccc(F)c(F)c2)c1` (stereo not drawn) | -14.79% | -14.22% |
| 15 | `O=C(Nc1ccc(OC(F)F)cc1)N1CCC(c2nnc[nH]2)CC1` | 18.85% | 2.368% |
| 16 | `Cc1cc(NC(C)C(=O)NCC(F)(F)F)nc(-c2ccncc2)n1` (stereo not drawn) | -12.36% & 4.252% | -18.76% |
| 17 | `CNS(=O)(=O)c1cccc(C(C)NCc2ccsc2)c1` (stereo not drawn) | -19.83% & 11.19% | -4.073% |
| 18 | `NC(=O)C(Cc1ccccc1)NS(=O)(=O)Cc1ccccc1F` (stereo not drawn) | 11.67% & 0.8964% | 23.15% |
| 19 | `[H][C@@]12CCN(Cc3cccc(C)n3)C[C@@]1([H])O[C@H](C)C2` | -29.46% | -21.31% |
| 20 | `Cc1cc(C)n(C2CN(c3ncnc4c3CCNCC4)C2)n1` | 2.713% & 4.08% | 4.112% |
| 21 | `O=C(O)C(F)(F)F.O=C(O)C(F)(F)F.[H][C@@]12COC[C@]1(C(=O)NCCc1cccs1)CN(Cc1ccncc1)C2` | -7.061% | -19.89% |
| 22 | `CC(C)C(C)NC(=O)Nc1ccc(F)c(C(N)=O)c1` (stereo not drawn) | -22.73% | -14.74% |
| 23 | `O=c1nc(SCc2ccncc2)c2c(n1CCO)CCC2` | 13.72% | 2.439% |
| 24 | `O=S(=O)(c1cn[nH]c1)N1CCCC1c1cc[nH]n1` (stereo not drawn) | -0.9907% | 7.911% |
| 25 | `CC(C)(C)c1coc([C@@H]2COCCN2Cc2cnc3ccccc3c2)n1` | 1.261% & 23.88% | 0.4549% |
| 26 | `Cc1ccc(-c2nc(CN3CCn4c(nnc4C4CC4)C3)cs2)o1` | 12.08% | -10.42% |
| 27 | `CNC(=O)CN(C)CC1(c2ccc(Br)cc2)CC1` | 28.77% | 18.02% |
| 28 | `CNS(=O)(=O)c1cc(C(=O)NC2COc3ccccc3C2)ccc1OC` (stereo not drawn) | -48.68% & 8.186% | -20.52% |
| 29 | `Cn1cc(CN2CCC(c3cc(COc4ccc(Cl)cc4)[nH]n3)C2)cn1` (stereo not drawn) | 24.18% | 9.948% & 2.119% |
| 30 | `Cc1ncsc1CCC(=O)N1CCCC1c1cccnc1` (stereo not drawn) | -4.34% | 70.67% |
| 31 | `Cc1ccoc1C(=O)N1CCn2nnc(COc3cccnc3)c2C1.O=C(O)C(F)(F)F` | -9.719% | -19.06% |
| 32 | `O=S(=O)(c1cccnc1)N1CCN(Cc2nc(-c3ccco3)cs2)CC1` | 14.32% | -4.37% |
| 33 | `CCC(CN1CCCC1)NC(=O)C1(c2cccc(F)c2)CC1.O=C(O)CC(O)(CC(=O)O)C(=O)O` (stereo not drawn) | -21.06% | 8.604% & -14.5% |
| 34 | `CCCn1[nH]cc/c1=N\C(=O)CN1CCCC1c1cccn1C` (stereo not drawn) | 18.04% | -4.552% |
| 35 | `O=C(O)C(F)(F)F.O=C(O)C(F)(F)F.[H][C@@]12COC[C@]1([H])[C@H](OCc1csc(C)n1)CN2Cc1cccnc1` | 4.215% | 13.89% |
| 36 | `CCC(O)CN1CCN(C(=O)c2cccc3[nH]ncc23)CC1` (stereo not drawn) | -13.99% | 5.823% |
| 37 | `CCOC(=O)N1CCN(CC(=O)Nc2nnc(C)s2)CC1` | -5.584% | 2.955% & 6.409% |
| 38 | `CCC[C@H]1CN(Cc2cncn2C)C[C@@H]1NC(=O)C1(COC)CCC1` | 16.47% | 8.977% |
| 39 | `Cc1cc(C)c2nc(CN3CCC(N4CCOCC4)CC3)cc(O)c2c1` | -4.174% | 4.745% |
| 40 | `O=C(NCC1CCCCO1)c1cc(Cn2cnc3ccccc32)[nH]n1` (stereo not drawn) | 1.854% & 14.93% | 2.436% |
| 41 | `CCOCCN1CCN(CCCS(C)(=O)=O)CC1C` (stereo not drawn) | -7.951% & -10.79% | -25.19% |
| 42 | `O=C(O)C(F)(F)F.[H][C@@]12COC[C@]1([H])[C@H](NC(=O)c1cscn1)CN2c1ncc(CC)cn1` | -36.22% | -25.58% |
| 43 | `CC(=O)Nc1nc(C(=O)N2CCCC(n3nc(C)cc3C)C2)cs1` (stereo not drawn) | -8.298% | -19.7% |
| 44 | `Cc1cccc(-c2noc([C@@H]3C[C@@H](O)CN3CC3CCCCC3)n2)c1` | 2.241% & -0.7269% | 2.758% |
| 45 | `CC(C)(C)OC(=O)N1CC(=O)N(CCc2ccccc2)CC(O)C1` (stereo not drawn) | -43.66% | -39.22% |
| 46 | `Cc1cnc(-c2nc(C3CCN(Cc4ccccc4C)CC3)no2)cn1` | -11.26% | 10.19% & 17.18% |
| 47 | `Cc1nc(-c2ccnn2C)cc(C2CCCN(S(C)(=O)=O)C2)n1` (stereo not drawn) | -21.69% | -3.085% & 5.414% |
| 48 | `CS(=O)(=O)N1C[C@@H](F)[C@@H](OCc2nc3ccccc3o2)C1` | 4.022% & -32.28% | 33.08% |
| 49 | `CCS(=O)(=O)N1CCC2(CC1)CC(OCC1CC1)CO2` (stereo not drawn) | 5.054% | -22.38% |
| 50 | `Oc1cccc(CNCC2CCCO2)c1` (stereo not drawn) | -51.51% | -18.95% |
| 51 | `O=C(c1cc(-n2cnnn2)ccc1Cl)N1CCN(c2ccccc2)CC1` | 29.83% | -14.72% |
| 52 | `Cc1nn(CC(C)C)c(N(C)C)c1CNCCS(C)(=O)=O` | -30.27% | 12.78% |
| 53 | `CCc1c(C)nc2n(c1=O)CC(C(=O)Nc1ncccc1C)CS2` (stereo not drawn) | 10.76% | -4.976% |
| 54 | `CCn1cncc1Cn1ncc2ccccc2c1=O` | 27.38% & -2.759% | 0.5516% |
| 55 | `Cc1cc(I)c2c(c1)C(=O)C(CN1CCCC1)(CN1CCCC1)CO2` | 8.718% | -3.826% |
| 56 | `COC(=O)c1cc(OC)c(OC)cc1NCc1c(C)noc1C` | -16.9% | -10.19% |
| 57 | `Nc1cc(N2CCCC(CO)(Cc3ccccc3F)C2)nc(N)n1` (stereo not drawn) | 69.86% | 47.27% |
| 58 | `[H][C@@]12CCN(C(=O)CCc3ccc(Cl)cc3)C[C@]1([H])OCCNC2=O` | 12.68% & -4.702% | -5.482% |
| 59 | `CCS(=O)(=O)N1CCC2(CC(=O)N(c3cnn(C)c3)C2)C1` (stereo not drawn) | 8.063% & -4.052% | -4.316% |
| 60 | `Cc1n[nH]c(C)c1NC(=O)CN1CCCC1c1noc(C2CC2)n1` (stereo not drawn) | 1.093% | -7.627% |
| 61 | `CCc1cc(N(C)Cc2ccncn2)n2nccc2n1` | -35.68% | -15.83% |
| 62 | `Cc1nsc(NC2CCOC3(CCCCC3)C2)n1` (stereo not drawn) | 14.5% | 34.5% |
| 63 | `O=C(O)C(F)(F)F.[H][C@]12CCN(CCOC)[C@@]1([H])CC[C@@H](COCc1csc(C)n1)O2` | -3.237% | -19.6% |
| 64 | `CC(C)NC(=O)C1CN(Cc2cccs2)Cc2ccnn2C1` (stereo not drawn) | 3.313% & 11.66% | 25.92% |
| 65 | `CC(=O)c1sc(C(NC(=O)c2ccccc2)C2CC2)nc1C` (stereo not drawn) | 22.54% & -2.308% | 6.945% |
| 66 | `[H][C@@]12CN(c3ncc(C)cn3)C[C@]1(C(=O)NC)CCCN2c1ncccn1` | -40.99% & -3.623% | 1.409% & -1.112% |
| 67 | `CCOCCn1nc(C)cc1C(=O)N1CC(C)(C)[C@@](C)(O)C1` | -0.1184% | -4.135% & -3.696% |
| 68 | `[H][C@@]12CCN(Cc3nccs3)C[C@]1(C(=O)NCc1ccco1)CCO2` | -0.007992% & -3.605% | -7.139% |
| 69 | `COC(=O)c1ccc(S(=O)(=O)NCC(O)c2sccc2C)cc1` (stereo not drawn) | 14.83% & 4.919% | 22.35% |
| 70 | `CC1CCCCN1C(=O)c1nc2c(n1C(C)C)CCN(C(=O)C1CC1)C2` (stereo not drawn) | -4.285% & -16.09% | 5.97% |
| 71 | `c1ccc(Cn2cc(CNc3ncnc4c3CCNCC4)cn2)cc1` | -0.7059% | -11.72% |
| 72 | `O=C(O)CC[C@@H]1CN(c2ncccc2F)CC[C@@H]1N1CCOCC1` | -44.82% | -22.31% |
| 73 | `O=C1CCC2(CCNCC2)CN1CCCOc1cccnc1` | -24.47% | 6.108% |

For reference, 6 entries once more:

Compound,A,B
O=S(=O)(c1cccnc1)N1CCN(Cc2nc(-c3ccco3)cs2)CC1,14.32%,-4.37%
O=C(Nc1ccc(OC(F)F)cc1)N1CCC(c2nnc[nH]2)CC1,18.85%,2.368%
CCOCCN1CCN(CCCS(C)(=O)=O)CC1C (stereo not drawn),-7.951% & -10.79%,-25.19%
Cc1cc(C)c2nc(CN3CCC(N4CCOCC4)CC3)cc(O)c2c1,-4.174%,4.745%
CS(=O)(=O)N1C[C@@H](F)[C@@H](OCc2nc3ccccc3o2)C1,4.022% & -32.28%,33.08%
Cc1cc(NC(C)C(=O)NCC(F)(F)F)nc(-c2ccncc2)n1 (stereo not drawn),-12.36% & 4.252%,-18.76%